Experimental data reported in patent US20210189007A1.
No constants are given. Whether binding was seen depends on the method and setting. Some results given as binding are weak or reduced against the parent protein; the word gives no strength.

Target: T1, DCLK1 isoform 1 purified protein (human) (UniProt O15075)
T1 sequence (looked up): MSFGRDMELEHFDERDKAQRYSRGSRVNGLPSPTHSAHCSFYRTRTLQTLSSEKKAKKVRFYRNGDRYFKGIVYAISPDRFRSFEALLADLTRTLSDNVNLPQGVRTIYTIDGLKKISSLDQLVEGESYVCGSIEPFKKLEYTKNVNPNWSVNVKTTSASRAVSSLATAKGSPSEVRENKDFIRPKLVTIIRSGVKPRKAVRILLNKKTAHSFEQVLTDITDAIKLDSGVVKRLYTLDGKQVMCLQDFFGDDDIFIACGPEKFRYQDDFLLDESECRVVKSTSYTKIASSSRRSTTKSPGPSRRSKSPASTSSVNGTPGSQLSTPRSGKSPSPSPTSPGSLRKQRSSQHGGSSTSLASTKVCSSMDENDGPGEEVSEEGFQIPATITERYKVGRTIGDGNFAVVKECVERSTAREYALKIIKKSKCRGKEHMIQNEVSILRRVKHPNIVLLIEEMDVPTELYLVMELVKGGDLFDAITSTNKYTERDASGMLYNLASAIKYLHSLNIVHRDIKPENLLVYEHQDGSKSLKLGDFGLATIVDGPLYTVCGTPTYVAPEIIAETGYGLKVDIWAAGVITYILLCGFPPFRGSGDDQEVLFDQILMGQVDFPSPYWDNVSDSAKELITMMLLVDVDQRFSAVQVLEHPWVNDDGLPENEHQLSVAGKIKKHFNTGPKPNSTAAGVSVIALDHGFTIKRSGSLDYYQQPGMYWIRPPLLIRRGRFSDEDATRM
Test: ELISA on purified protein

- binding: binds
B1: CBT-15G monoclonal antibody (antibody, V domains shown)
VH: EVQLQQSGTALARPGASVKMSCKASGYSFTSYWMHWVKQRPGQGLEWIGAIYPGKSDTSYNQKFKGKAKLTAVTSASTAYMELSSLTNEDSAVYYCTRYGKGAMDYWGQGTSVTVSS
VL: DIVLTQSHKFMSTSVGDRVTITCKASQDVNTAVAWYQKKPGQSPKLLIYWASTRLTGVPDRFTGSGSGTDYTLTISSVQAEDLALYYCQQHYSTPYTFGGGTKLEIK
